Results are given in words; binding and its absence hold for the method and conditions named. Binding seen in cells or lysates may run through a third protein. Some entries that bind do so weakly or less than the wild type. Each block holds one molecule with its values, some of them ahead of it.
Legend:
IRF7 = molecular target: T1, IRF7 (UniProt Q92985); test: co-IP; expression vectors transfected into 293T cells; lysis in NP40 IP buffer (50 mM Tris pH 8.0, 150 mM NaCl, 0.5% NP-40) or RIPA; antibody overnight at 4°C, Protein G 3 hours; immunoblot for c-Myc or FLAG; in Figure 6G-I with or without co-expressed DDX24 or DDX24 siRNA
T1 sequence: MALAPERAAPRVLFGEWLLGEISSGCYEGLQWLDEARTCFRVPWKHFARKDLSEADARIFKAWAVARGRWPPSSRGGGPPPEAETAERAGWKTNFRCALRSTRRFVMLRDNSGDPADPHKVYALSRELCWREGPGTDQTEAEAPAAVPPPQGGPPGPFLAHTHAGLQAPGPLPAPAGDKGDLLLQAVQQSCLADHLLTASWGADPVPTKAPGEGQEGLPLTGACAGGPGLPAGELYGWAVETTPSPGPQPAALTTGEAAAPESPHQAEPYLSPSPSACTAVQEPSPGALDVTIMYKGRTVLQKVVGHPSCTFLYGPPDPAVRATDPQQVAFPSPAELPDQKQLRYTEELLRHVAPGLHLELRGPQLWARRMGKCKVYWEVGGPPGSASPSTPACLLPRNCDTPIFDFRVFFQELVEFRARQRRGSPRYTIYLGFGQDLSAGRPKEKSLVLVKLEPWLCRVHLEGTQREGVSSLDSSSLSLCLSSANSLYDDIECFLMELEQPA

Protein sequences, listed by entry. Tags and fused reporters are not part of them.
UniProt Q13158: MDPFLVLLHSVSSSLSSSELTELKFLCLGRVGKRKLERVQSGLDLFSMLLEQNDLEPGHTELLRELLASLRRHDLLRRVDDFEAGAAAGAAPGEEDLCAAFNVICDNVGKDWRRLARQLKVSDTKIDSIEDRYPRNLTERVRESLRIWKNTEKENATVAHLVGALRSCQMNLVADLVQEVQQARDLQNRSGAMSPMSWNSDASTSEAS
UniProt Q13546: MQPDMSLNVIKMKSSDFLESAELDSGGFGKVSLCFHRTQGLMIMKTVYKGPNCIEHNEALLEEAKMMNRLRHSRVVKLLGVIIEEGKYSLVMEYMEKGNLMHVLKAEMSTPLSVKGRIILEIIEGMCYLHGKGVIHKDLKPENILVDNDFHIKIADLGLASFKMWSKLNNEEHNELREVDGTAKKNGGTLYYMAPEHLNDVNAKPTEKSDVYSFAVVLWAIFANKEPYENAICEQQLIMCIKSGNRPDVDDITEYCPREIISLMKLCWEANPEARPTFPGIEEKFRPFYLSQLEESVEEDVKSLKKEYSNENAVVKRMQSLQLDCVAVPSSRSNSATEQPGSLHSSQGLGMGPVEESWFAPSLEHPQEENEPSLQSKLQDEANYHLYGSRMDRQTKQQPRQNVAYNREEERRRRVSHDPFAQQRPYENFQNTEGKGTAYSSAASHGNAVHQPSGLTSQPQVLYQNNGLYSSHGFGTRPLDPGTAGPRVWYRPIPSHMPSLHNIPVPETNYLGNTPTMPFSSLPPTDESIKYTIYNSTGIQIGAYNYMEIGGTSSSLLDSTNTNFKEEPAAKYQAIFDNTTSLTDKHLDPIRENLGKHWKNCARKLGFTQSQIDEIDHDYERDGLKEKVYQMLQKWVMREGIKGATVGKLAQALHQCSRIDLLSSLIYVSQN

[1] = molecular target: T2, endogenous mouse FADD (MEF) (mouse (endogenous in MEF)) (UniProt Q61160); test: co-IP; endogenous IP of DDX24 and FADD in MEF, with or without 6 hours poly I:C treatment
T2 sequence: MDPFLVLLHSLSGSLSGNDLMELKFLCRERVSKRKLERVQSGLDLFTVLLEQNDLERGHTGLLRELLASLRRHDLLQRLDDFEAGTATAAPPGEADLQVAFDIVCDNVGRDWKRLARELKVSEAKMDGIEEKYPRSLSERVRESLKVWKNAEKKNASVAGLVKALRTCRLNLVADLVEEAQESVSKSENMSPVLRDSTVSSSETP

[2] = molecular target: endogenous human FADD (HUVEC) (human (endogenous in HUVEC)) (UniProt Q13158); test: co-IP; endogenous proteins; HUVEC lysate immunoprecipitated with anti-FADD or mouse IgG serum, immunoblot with anti-DDX24 or anti-FADD
[3] = molecular target: T3, endogenous human TRADD (293T) (human (endogenous in 293T)) (UniProt Q15628); test: co-IP; endogenous IP of DDX24 and TRADD in 293T cells (Figure S2F)
T3 sequence: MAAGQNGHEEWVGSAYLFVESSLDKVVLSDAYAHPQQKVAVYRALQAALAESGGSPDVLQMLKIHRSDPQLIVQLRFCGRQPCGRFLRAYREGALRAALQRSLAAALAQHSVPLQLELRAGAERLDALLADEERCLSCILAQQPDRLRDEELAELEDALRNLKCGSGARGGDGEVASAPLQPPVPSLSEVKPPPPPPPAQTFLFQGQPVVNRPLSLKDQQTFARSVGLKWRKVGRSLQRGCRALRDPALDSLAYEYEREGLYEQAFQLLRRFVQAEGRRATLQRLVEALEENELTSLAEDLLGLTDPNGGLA

- binding (IRF7): binds
Molecule: c-Myc-RIP1 (from UniProt Q13546 1-671)

- binding [1]: binds
B1: endogenous mouse DDX24 (MEF) (protein, UniProt Q9ESV0 1-857)
chain: MKVKETNSKPKLASRGTFQRKGIKIVGKWKQVTIDPNLFADGQMDDLVCFEELTDYRLVKNPSRLFSSEETKKRKAQAVSEEEEEEEGQSSSPKKKIKLKKQRDAARAAEGAAAQNEYEVKASEPEAQGEVTACSDQKVGGAKSESLAQAAPRKKKNKGKKKLDTFQSTSPKLPKKSKKTWMAEVHDQKADVSAWRDLFVPKAVLRALSFLGFSAPTPIQALTLAPAIRDKLDILGAAETGSGKTLAFAIPMIHSVLQWHKMKAPPIPRSTGMPPREMRFGATAHLGSPCKDRTESGVLPEEARIETEAQPSDSGVQATPETSASASAQTLLVCDDDAGEGPSSLEEKPVPKQNEDGEEKFDAEQAGKLKQELCDQIAIYKVHPRRPLLGLVLTPTRELAIQVRQHIDAVAKFTGINTAILVGGMSTQKQQRMLNRHPEIVIATPGRLWELVKEKHPHLSNLRQLRCLVIDEADRMVEKGHFAELSQLLEMLNDSQYNPSRQTLVFSATLTLVHQAPARILHKKHVKKMDKTDKLDLLMQKVGMRGKPKVIDLTRNEGTVETLTETKIHCETDEKDLYLYYFLMQYPGRSLVFANSISCIKRLSGLLKVLDVMPLTLHACMHQKQRLRNLEQFARLQDCVLLATDVAARGLDIPKVQHVIHYQVPRTSEIYIHRSGRTARAASEGLSLMLIGPEDVINFKKIYKTLQKDEDIPLFPVQSKYMDVVKERIRLARQIEKAEYRNFQACLHNSWIEQAAAALEIELEEEMYKGGKADQQEERRRQKQMKMLKQELRHLLSQPLFQENLKTRYPTQSGRPPQPVLASRNIESALSCLSRQKRRRKKPKEPRAPPQPGSSTS

- binding [2]: binds
B2: endogenous human DDX24 (HUVEC) (protein, UniProt Q9GZR7 1-859)
chain: MKLKDTKSRPKQSSCGKFQTKGIKVVGKWKEVKIDPNMFADGQMDDLVCFEELTDYQLVSPAKNPSSLFSKEAPKRKAQAVSEEEEEEEGKSSSPKKKIKLKKSKNVATEGTSTQKEFEVKDPELEAQGDDMVCDDPEAGEMTSENLVQTAPKKKKNKGKKGLEPSQSTAAKVPKKAKTWIPEVHDQKADVSAWKDLFVPRPVLRALSFLGFSAPTPIQALTLAPAIRDKLDILGAAETGSGKTLAFAIPMIHAVLQWQKRNAAPPPSNTEAPPGETRTEAGAETRSPGKAEAESDALPDDTVIESEALPSDIAAEARAKTGGTVSDQALLFGDDDAGEGPSSLIREKPVPKQNENEEENLDKEQTGNLKQELDDKSATCKAYPKRPLLGLVLTPTRELAVQVKQHIDAVARFTGIKTAILVGGMSTQKQQRMLNRRPEIVVATPGRLWELIKEKHYHLRNLRQLRCLVVDEADRMVEKGHFAELSQLLEMLNDSQYNPKRQTLVFSATLTLVHQAPARILHKKHTKKMDKTAKLDLLMQKIGMRGKPKVIDLTRNEATVETLTETKIHCETDEKDFYLYYFLMQYPGRSLVFANSISCIKRLSGLLKVLDIMPLTLHACMHQKQRLRNLEQFARLEDCVLLATDVAARGLDIPKVQHVIHYQVPRTSEIYVHRSGRTARATNEGLSLMLIGPEDVINFKKIYKTLKKDEDIPLFPVQTKYMDVVKERIRLARQIEKSEYRNFQACLHNSWIEQAAAALEIELEEDMYKGGKADQQEERRRQKQMKVLKKELRHLLSQPLFTESQKTKYPTQSGKPPLLVSAPSKSESALSCLSKQKKKKTKKPKEPQPEQPQPSTSAN

- binding [3]: no binding
B3: endogenous human DDX24 (293T) (protein, UniProt Q9GZR7 1-859)
chain: B2 chain

Source: PMC3814876
